Common to all, as to assay: glycan array binding signal (z-score within array); higher = stronger binding
What all share (conditions): glycan notation: IUPAC condensed, linker removed

The target of assay [1] is Gal(b1-4)GlcNAc(b1-3)Gal(b1-4)GlcNAc(b1-2)[Gal(b1-4)GlcNAc(b1-3)Gal(b1-4)GlcNAc(b1-6)]Man(a1-6)[Gal(b1-4)GlcNAc(b1-3)Gal(b1-4)GlcNAc(b1-2)Man(a1-3)]Man(b1-4)GlcNAc(b1-4)GlcNAc. The method in brief:
(§1)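 The Consortium for Functional Glycomics database supplied 3228 glycan arrays, of which those lacking an available protein sequence were dropped. The binding signal, a within-array Z-score, was averaged across arrays of the same protein sequence and across linkers. Negative scores can be read as non-binding.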

In assay [2] the target is Gal(b1-4)GlcNAc(b1-3)Gal(b1-4)GlcNAc(b1-2)[Gal(b1-4)GlcNAc(b1-3)Gal(b1-4)GlcNAc(b1-6)]Man(a1-6)[Gal(b1-4)GlcNAc(b1-3)Gal(b1-4)GlcNAc(b1-2)Man(a1-3)]Man(b1-4)GlcNAc(b1-4)[Fuc(a1-6)]GlcNAc. In a few lines:
as §1

For assay [3], the target named is Gal(b1-4)GlcNAc(b1-3)Gal(b1-4)GlcNAc(b1-3)Gal(b1-4)GlcNAc. The method in brief:
as §1

Assay [4] addresses Gal(b1-4)GlcNAc(b1-3)Gal(b1-4)GlcNAc(b1-3)Gal(b1-4)GlcNAc(b1-2)Man(a1-3)[Gal(b1-4)GlcNAc(b1-3)Gal(b1-4)GlcNAc(b1-3)Gal(b1-4)GlcNAc(b1-2)Man(a1-6)]Man(b1-4)GlcNAc(b1-4)GlcNAc. In a few lines: as §1
Assay [5] addresses Gal(b1-4)GlcNAc(b1-3)Gal(b1-4)GlcNAc(b1-3)Gal(b1-4)GlcNAc(b1-2)Man(a1-3)[Gal(b1-4)GlcNAc(b1-3)Gal(b1-4)GlcNAc(b1-3)Gal(b1-4)GlcNAc(b1-2)Man(a1-6)]Man(b1-4)GlcNAc(b1-4)[Fuc(a1-6)]GlcNAc. In a few lines: as §1
For assay [6], the target named is Gal(b1-4)GlcNAc(b1-3)Gal(b1-4)GlcNAc(b1-3)Gal(b1-4)GlcNAc(b1-2)[Gal(b1-4)GlcNAc(b1-3)Gal(b1-4)GlcNAc(b1-3)Gal(b1-4)GlcNAc(b1-6)]Man(a1-6)[Gal(b1-4)GlcNAc(b1-3)Gal(b1-4)GlcNAc(b1-3)Gal(b1-4)GlcNAc(b1-2)Man(a1-3)]Man(b1-4)GlcNAc(b1-4)[Fuc(a1-6)]GlcNAc. In a few lines:
as §1

Assay [7] addresses Gal(b1-4)GlcNAc(b1-3)Gal(b1-4)GlcNAc(b1-3)Gal(b1-4)GlcNAc(b1-3)Gal(b1-4)GlcNAc(b1-2)Man(a1-3)[Gal(b1-4)GlcNAc(b1-3)Gal(b1-4)GlcNAc(b1-3)Gal(b1-4)GlcNAc(b1-3)Gal(b1-4)GlcNAc(b1-2)Man(a1-6)]Man(b1-4)GlcNAc(b1-4)GlcNAc. In a few lines:
as §1

Assay [8] addresses Gal(b1-4)GlcNAc(b1-3)Gal(b1-4)GlcNAc(b1-3)Gal(b1-4)GlcNAc(b1-3)Gal(b1-4)GlcNAc(b1-2)Man(a1-3)[Gal(b1-4)GlcNAc(b1-3)Gal(b1-4)GlcNAc(b1-3)Gal(b1-4)GlcNAc(b1-3)Gal(b1-4)GlcNAc(b1-2)Man(a1-6)]Man(b1-4)GlcNAc(b1-4)[Fuc(a1-6)]GlcNAc. The method in brief:
as §1

In assay [9] the target is Gal(b1-4)GlcNAc(b1-3)Gal(b1-4)GlcNAc(b1-3)Gal(b1-4)GlcNAc(b1-3)Gal(b1-4)GlcNAc(b1-2)[Gal(b1-4)GlcNAc(b1-3)Gal(b1-4)GlcNAc(b1-3)Gal(b1-4)GlcNAc(b1-3)Gal(b1-4)GlcNAc(b1-6)]Man(a1-6)[Gal(b1-4)GlcNAc(b1-3)Gal(b1-4)GlcNAc(b1-3)Gal(b1-4)GlcNAc(b1-3)Gal(b1-4)GlcNAc(b1-2)Man(a1-3)]Man(b1-4)GlcNAc(b1-4)[Fuc(a1-6)]GlcNAc. The method in brief:
as §1

The target of assay [10] is Gal(b1-4)GlcNAc(b1-3)Gal(b1-4)GlcNAc(b1-3)Gal(b1-4)GlcNAc(b1-3)Gal(b1-4)GlcNAc(b1-3)Gal(b1-4)GlcNAc(b1-2)Man(a1-3)[Gal(b1-4)GlcNAc(b1-3)Gal(b1-4)GlcNAc(b1-3)Gal(b1-4)GlcNAc(b1-3)Gal(b1-4)GlcNAc(b1-3)Gal(b1-4)GlcNAc(b1-2)Man(a1-6)]Man(b1-4)GlcNAc(b1-4)GlcNAc. The method in brief:
as §1

The target of assay [11] is Gal(b1-4)GlcNAc(b1-3)Gal(b1-4)GlcNAc(b1-3)Gal(b1-4)GlcNAc(b1-3)Gal(b1-4)GlcNAc(b1-3)Gal(b1-4)GlcNAc(b1-2)Man(a1-3)[Gal(b1-4)GlcNAc(b1-3)Gal(b1-4)GlcNAc(b1-3)Gal(b1-4)GlcNAc(b1-3)Gal(b1-4)GlcNAc(b1-3)Gal(b1-4)GlcNAc(b1-2)Man(a1-6)]Man(b1-4)GlcNAc(b1-4)[Fuc(a1-6)]GlcNAc. The method in brief: as §1
The target in assay [12] is Gal(b1-4)GlcNAc(b1-3)Gal(b1-4)GlcNAc(b1-3)Gal(b1-4)GlcNAc(b1-3)Gal(b1-4)GlcNAc(b1-3)Gal(b1-4)GlcNAc(b1-2)[Gal(b1-4)GlcNAc(b1-3)Gal(b1-4)GlcNAc(b1-3)Gal(b1-4)GlcNAc(b1-3)Gal(b1-4)GlcNAc(b1-3)Gal(b1-4)GlcNAc(b1-6)]Man(a1-6)[Gal(b1-4)GlcNAc(b1-3)Gal(b1-4)GlcNAc(b1-3)Gal(b1-4)GlcNAc(b1-3)Gal(b1-4)GlcNAc(b1-3)Gal(b1-4)GlcNAc(b1-2)Man(a1-3)]Man(b1-4)GlcNAc(b1-4)[Fuc(a1-6)]GlcNAc. The method in brief: as §1

Assay [13] addresses Gal(b1-4)GlcNAc(b1-3)Gal(b1-4)GlcNAc(b1-3)Gal(b1-4)GlcNAc(b1-3)Gal(b1-4)GlcNAc(b1-3)Gal(b1-4)GlcNAc(b1-3)Gal(b1-4)GlcNAc(b1-2)Man(a1-3)[Gal(b1-4)GlcNAc(b1-3)Gal(b1-4)GlcNAc(b1-3)Gal(b1-4)GlcNAc(b1-3)Gal(b1-4)GlcNAc(b1-3)Gal(b1-4)GlcNAc(b1-3)Gal(b1-4)GlcNAc(b1-2)Man(a1-6)]Man(b1-4)GlcNAc(b1-4)GlcNAc. The method in brief: as §1
Assay [14] concerns the target Gal(b1-4)GlcNAc(b1-3)Gal(b1-4)GlcNAc(b1-3)GalNAc. In a few lines:
as §1

The target in assay [15] is Gal(b1-4)GlcNAc(b1-3)Gal(b1-4)GlcNAc(b1-3)[Gal(b1-4)GlcNAc(b1-3)Gal(b1-4)GlcNAc(b1-6)]GalNAc. The method in brief: as §1
The target in assay [16] is Gal(b1-4)GlcNAc(b1-3)Gal(b1-4)GlcNAc(b1-6)[Gal(b1-3)]GalNAc. The method in brief:
as §1

Assay [17] has as its target Gal(b1-4)GlcNAc(b1-3)Gal(b1-4)[Fuc(a1-3)]GlcNAc(b1-3)Gal(b1-4)[Fuc(a1-3)]GlcNAc. The method in brief:
as §1

Assay [18] addresses Gal(b1-4)GlcNAc(b1-3)GalNAc. In a few lines:
as §1

The target of assay [19] is Gal(b1-4)GlcNAc(b1-3)[Fuc(a1-3)GlcNAc(b1-6)]Gal(b1-4)Glc. In a few lines: as §1
Assay [20] concerns the target Gal(b1-4)GlcNAc(b1-3)[Gal(b1-4)GlcNAc(b1-6)]Gal(b1-4)GlcNAc. The method in brief: as §1
Assay [21] deals with Gal(b1-4)GlcNAc(b1-3)[GlcNAc(b1-6)]Gal(b1-4)GlcNAc. In a few lines: as §1
The target in assay [22] is Gal(b1-4)GlcNAc(b1-6)Gal(b1-4)GlcNAc. The method in brief:
as §1

The other results are listed elsewhere or left out.

B1: Awp3 (Candida glabrata), B4UN32 (protein)
chain: MISFVTLLAILGLLSISWADQTVRSVAGDQRVTDPVIVGDNSILDYYGGSNYDFSNNFEIGRGTLYIGKESYFSSFQSAPTDVPNSFHLLIKNTNNLQNNGQFIIENIKRHANQCSNSSIQVFPINFQNDGEFEIISGGVEGRCCLPTSVIAPQNFLNNGKFYYKVLTDTGSIYSGSCMQNVDIGASTTTTVNNNLWEFTGSINAQINGAVSGAAQINLDGSNMFVNANTFSGQVVNLINGGSFLQTSDPLSNIVVINGLGTSDTGVTSIAVKGKGKSFTYNPSSGIVKLTTVEGKTYAYQIGCGYNTKKFITNNDSGASYESADNFFVLTYSEPYSPQTCQLENSSIFSSNFISTSTSSSSSSSSASSLPSSMSSSLPSSLSSSLSSSLSSSMSSSMSSLFIIPPPYTTTRSSGSSIIDTEIVSFYSTTDSPGHTITGTTTTTLYGPHTHSSVSTPSSSSESSTTSNSSIESSSLPHTSVSSTPESSITPSSNTISSSPTSDFSSVQSSSIMESSSVVASSSVINSSSIVDSSSSSASSLPSSMSSSLSSSMSSSLPSSMSSSLSSSLSSSLSSSMSSSMSSLFIIPPPYTTTRSSGSSIIDTEIVSFYSTTDSPGHTITGTTTTTLYGPHTHSSVSTPSSSSESSTTSNSSIESSSLPHTSVSSTPESSITPSSNTISSSPTSDFSSVQSSSIMESSSVVASSSVINSSSIVDSSSSSASSLPSSMPSSLPSSMSSSLSSSMSSSLSSSLSSSLSSSMSSSMSSLFIIPPPYTTTRSSGSSIIDTEIVSFYSTTDSPGHTITGTTTTTLYGPHTHSSVSTPSSSSESSTTSNSSIESSSLPHTSVSSTPESSITPSSNTISSSPTSDFSSVQSSSIMESSSVVASSSATQSSSVINSSSIVDSSSSSASSLPSSMPSSLPSSLSSSLSSSLSSSMSSSMSSLFIIPPPYTTTRSSGSSIIDTEIVSFYSTTDSPGHTITGTTTTTLYESSIYSSSSSTIQESELSNTSRTTMTSNSSVSISSTSSRSSFSNTKSSTIVISQSASLPDSKTDIILSTSSNIGYSSRSLLSDLGTSISDSDIHHSVLHSTESYSSNESGTNPFTSIASLSNFIPESSSHTSTALGSENSVISSDILTTMSHPVATNSGDKPTTPKRSEQVSTTMTSSGPTPDTSSFDTDGMSAYSRPEFTTNSLEVNKSSTSQLGNNKQTFSNLQLESTRPHSENEVDNNTRLLQSIQQSSTYGTNNVNPLSPTGSISIPLTEDGQGDNNNWNSPATNDLCTQISFNLTATTITVTDRITITDSIHDISSEVITSYIYQTIVDQKTVTQTVDGKSLANKMSSIPKPSSRSLIQPQPPVAIELQEGAASTSRVSLVSLFISIILVLL
On to B1, for which the “glycan array binding signal (z-score)” value in assay [1] is 1.76; in [2] it was -1.19; in assay [3], 0.124; in [4], 0.958; in assay [5], 0.842; in assay [6] it was 1.96. For the same molecule, the “glycan array binding signal (z-score)” value in [7] is -0.476; in [8], 0.582; in [9] it was 0.977; in [10] it was -0.487; in [11] it was 0.113; in assay [12], -0.313. Moreover, the “glycan array binding signal (z-score)” value was 0.362 in [13]; 1.03 in assay [14]; 2.16 in [15]; -0.292 in assay [16]; 0.452 in [17]; -0.074 in assay [18]. For the same molecule, the “glycan array binding signal (z-score)” value in [19] is -0.665; in assay [20], -0.796; in [21], -1.1; in assay [22], -0.013.

The values above are taken from the supplement of paper PMC8728848.
